Data on 3 molecules can be found in US20230416345A1, “NEW TYPE II COLLAGEN BINDING PROTEINS” (Navigo Proteins GmbH, priority 2020, published 2023).

No constants are given. Whether binding was seen depends on the method and setting. Binding can be weak; no strength is given.

In assay [1] the target is porcine collagen type II (porcine). The assay can be described thus: Immunohistochemistry on pig eye sections; target in the tissue taken as type II collagen.
Assay [2] shares this target. The assay can be described thus: ELISA, coated collagen, anti-StrepTag detection. On the technique in general: An ELISA detects its analyte on a solid surface through an enzyme-linked reagent.
Assay [3] concerns the target rabbit collagen type II (rabbit). Put plainly: ELISA, coated collagen, anti-StrepTag detection.

B1: CID 211999 (SEQ ID NO: 38), dimer of SEQ ID NO: 2 (directly joint monomers) (designed binder, not shown: small tags and cut ends)
chain: IAAKFDEAQSAADSEILHLPNLTEQQRHYFRRWLSDDPSVSTHILTQAQHLNDDQAPKIAAKFDEAQSAADSEILHLPNLTEQQRHYFRRWLSDDPSVSTHILTQAQHLNDDQAPKSAWSHPQFEK
As for B1, the binding entry in assay [1] was “binds”.

B2: CID 212001 (SEQ ID NO: 41), tetramer of SEQ ID NO: 2 (designed binder, not shown: small tags and cut ends)
chain: IAAKFDEAQSAADSEILHLPNLTEQQRHYFRRWLSDDPSVSTHILTQAQHLNDDQAPKIAAKFDEAQSAADSEILHLPNLTEQQRHYFRRWLSDDPSVSTHILTQAQHLNDDQAPKIAAKFDEAQSAADSEILHLPNLTEQQRHYFRRWLSDDPSVSTHILTQAQHLNDDQAPKIAAKFDEAQSAADSEILHLPNLTEQQRHYFRRWLSDDPSVSTHILTQAQHLNDDQAPKSAWSHPQFEK
For the molecule B2, the binding result in assay [2], in assay [3] and in assay [1] was “binds” throughout.

B3: CID 212000 (SEQ ID NO: 39), dimer of SEQ ID NO: 2 with linker between the monomers (designed binder, not shown: small tags and cut ends)
chain: IAAKFDEAQSAADSEILHLPNLTEQQRHYFRRWLSDDPSVSTHILTQAQHLNDDQAPKGGGGSGGGGSGGGGSGGGGSIAAKFDEAQSAADSEILHLPNLTEQQRHYFRRWLSDDPSVSTHILTQAQHLNDDQAPKSAWSHPQFEK
For B3, in assay [1], the binding entry is given as “binds”.
